In publication PMC12268154:

Columns and labels:
Assay in all cases: EMSA
Conditions in all cases: EMSA with biotin-labeled probes following Dong et al. [14], pH and temperature not stated, recombinant protein, protein details: GST (pGEX-4T-3), label: biotin
[1] = test system: EsNAC098 (Eleutherococcus senticosus)
[2] = test system: EsWRKY40 (Eleutherococcus senticosus)
[3] = test system: EsNAC047 (Eleutherococcus senticosus)
[4] = test system: EsERF66 (Eleutherococcus senticosus)
[5] = test system: EsMYB4 (Eleutherococcus senticosus)
[6] = methylated probe, DNA methylation (positions not stated)

Does “CCTTAGAAGACGTTCTTGAGCTAAAAAGATATTATTCTCAATTCTCCTACAAGGCACAAAAGCAAATTGAAAAGTAAAGGTAATGTCAGGCAAGG (double strand) [EsNAC098-EsbAS1 probe, methylated]” bind [1, 6]?
Result: binds

Does “TGGTCCATCCCAAGCCTGGCAGGCTTTGACCAGGCCAGGCCGGGCCAGACTCAAAATTTATAAAGGCCGGGCCAAGCTGAATA (double strand) [EsWRKY-EsCAS1 probe]” bind [2]?
Result: binds

Does “TGGTCCATCCCAAGCCTGGCAGGCTTTGACCAGGCCAGGCCGGGCCAGACTCAAAATTTATAAAGGCCGGGCCAAGCTGAATA (double strand) [EsWRKY-EsCAS1 probe, methylated]” bind [2, 6]?
Result: binds

Does “GTTCCTCAAATAAGAAGTCCCATCTGATAGAGTCAAAAGCTTTTTTCAAATCAATCTTCATATAGCATTTAGGAGGACCAGAGGCTCTATAG (double strand) [EsWRKY-EsbAS1 probe]” bind [2]?
Result: binds

Does “GGAGATGCACTTATATGTGGTGTTGCAACAGGAGATAGGTTTGAAATCCCCCATGTTAGTCAAGTTCCCAACCTTAGGGATGAGACACGGAAAGT (double strand) [EsNAC047-EsbAS1 probe, methylated]” bind [3, 6]?
Result: binds

Does “GCTTCACAAACACAGATGCAGGAGTTGATCACTAGTGTTCAACAACTAGCTGATGAAGTACGCAAACTGAATGATGACACCAAGGGGGAG (double strand) [EsERF-EsCAS1 probe]” bind [4]?
Result: binds

Does “GCACCGCAAGTTATACCAACCAAGCCCAAAGAGATGTGGGGGAAGTTTGAGTGACATTCAGAAGATGTGAAAGAATAACAGAGG (double strand) [EsMYB-EsbAS1 probe]” bind [5]?
Result: binds

Does “GTACAGAAACAGCAACAGGCCTTATCAAACAAATCTTTGAAATGAAGGAGCTAATTGCAGCTCAAACTGAATGGGCAGACACTAGTCTCTCCCTG (double strand) [EsNAC098-EsCAS1 probe, methylated]” bind [1, 6]?
Result: binds

Does “GATGCAGGAGTTGATCACTAGTGTTCAACAACTAGCTGATGAAGTACGCAAACTGAATGATGACACCAAGGGGGAGAATACAAG (double strand) [EsNAC047-EsCAS1 / EsMYB-EsCAS1 probe, methylated]” bind [5, 6]?
Result: binds

Does “GATGCAGGAGTTGATCACTAGTGTTCAACAACTAGCTGATGAAGTACGCAAACTGAATGATGACACCAAGGGGGAGAATACAAG (double strand) [EsNAC047-EsCAS1 / EsMYB-EsCAS1 probe, methylated]” bind [3, 6]?
Result: binds

Does “GGGGCATTTTCACTTAAATCTAGCCAAAATAGATTTTATTATCTTAAGAATGTTGGTGGAAAGGATGAAGTGGGCACACCAGTAAGCT (double strand) [EsERF-EsbAS1 probe]” bind [4]?
Result: binds

Does “GCTTCACAAACACAGATGCAGGAGTTGATCACTAGTGTTCAACAACTAGCTGATGAAGTACGCAAACTGAATGATGACACCAAGGGGGAG (double strand) [EsERF-EsCAS1 probe, methylated]” bind [4, 6]?
Result: binds

Does “GGGGCATTTTCACTTAAATCTAGCCAAAATAGATTTTATTATCTTAAGAATGTTGGTGGAAAGGATGAAGTGGGCACACCAGTAAGCT (double strand) [EsERF-EsbAS1 probe, methylated]” bind [4, 6]?
Result: binds

Does “GTTCCTCAAATAAGAAGTCCCATCTGATAGAGTCAAAAGCTTTTTTCAAATCAATCTTCATATAGCATTTAGGAGGACCAGAGGCTCTATAG (double strand) [EsWRKY-EsbAS1 probe, methylated]” bind [2, 6]?
Result: binds

Does “GCACCGCAAGTTATACCAACCAAGCCCAAAGAGATGTGGGGGAAGTTTGAGTGACATTCAGAAGATGTGAAAGAATAACAGAGG (double strand) [EsMYB-EsbAS1 probe, methylated]” bind [5, 6]?
Result: binds

Does “GGAGATGCACTTATATGTGGTGTTGCAACAGGAGATAGGTTTGAAATCCCCCATGTTAGTCAAGTTCCCAACCTTAGGGATGAGACACGGAAAGT (double strand) [EsNAC047-EsbAS1 probe]” bind [3]?
Result: binds

Does “GTACAGAAACAGCAACAGGCCTTATCAAACAAATCTTTGAAATGAAGGAGCTAATTGCAGCTCAAACTGAATGGGCAGACACTAGTCTCTCCCTG (double strand) [EsNAC098-EsCAS1 probe]” bind [1]?
Result: binds

Does “GATGCAGGAGTTGATCACTAGTGTTCAACAACTAGCTGATGAAGTACGCAAACTGAATGATGACACCAAGGGGGAGAATACAAG (double strand) [EsNAC047-EsCAS1 / EsMYB-EsCAS1 probe (same sequence)]” bind [5]?
Result: binds

Does “GATGCAGGAGTTGATCACTAGTGTTCAACAACTAGCTGATGAAGTACGCAAACTGAATGATGACACCAAGGGGGAGAATACAAG (double strand) [EsNAC047-EsCAS1 / EsMYB-EsCAS1 probe (same sequence)]” bind [3]?
Result: binds

Does “CCTTAGAAGACGTTCTTGAGCTAAAAAGATATTATTCTCAATTCTCCTACAAGGCACAAAAGCAAATTGAAAAGTAAAGGTAATGTCAGGCAAGG (double strand) [EsNAC098-EsbAS1 probe]” bind [1]?
Result: binds

Construct, isoform or probe ends are uncertain for at least one entry. At least one verdict rests on a figure or table, not on a statement of the authors.
